Source: paper PMC10165355
No constants are given. Whether binding was seen depends on the method and setting. In cells and extracts the contact can be indirect. A yes stands for co-enrichment or nearness to the bait. Other partners may have been found. Tags and fused reporters may be left off the sequences shown.

Molecular target: T1, Flag-DCLK1 (doublecortin-like kinase 1) (UniProt O15075)
T1 sequence: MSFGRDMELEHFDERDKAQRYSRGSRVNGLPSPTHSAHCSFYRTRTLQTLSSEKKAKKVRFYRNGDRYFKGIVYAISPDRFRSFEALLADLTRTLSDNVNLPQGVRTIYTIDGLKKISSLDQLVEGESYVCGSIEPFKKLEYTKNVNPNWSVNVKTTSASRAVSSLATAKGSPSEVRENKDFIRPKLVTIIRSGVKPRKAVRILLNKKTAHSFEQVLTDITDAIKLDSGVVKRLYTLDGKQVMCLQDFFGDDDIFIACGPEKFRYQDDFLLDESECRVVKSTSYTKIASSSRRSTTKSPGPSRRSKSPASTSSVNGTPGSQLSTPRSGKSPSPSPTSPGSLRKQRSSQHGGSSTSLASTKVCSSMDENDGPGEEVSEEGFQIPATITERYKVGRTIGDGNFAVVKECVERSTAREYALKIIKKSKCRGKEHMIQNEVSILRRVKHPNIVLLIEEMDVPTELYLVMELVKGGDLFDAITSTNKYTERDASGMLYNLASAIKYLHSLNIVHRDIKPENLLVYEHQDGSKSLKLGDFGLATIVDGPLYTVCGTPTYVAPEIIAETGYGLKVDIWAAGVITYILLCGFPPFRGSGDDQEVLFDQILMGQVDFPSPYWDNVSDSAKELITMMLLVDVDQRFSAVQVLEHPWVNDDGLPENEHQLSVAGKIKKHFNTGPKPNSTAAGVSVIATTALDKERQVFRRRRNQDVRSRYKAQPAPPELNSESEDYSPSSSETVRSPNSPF
Assay: affinity purification with mass spectrometry; anti-Flag antibody added to lysate of 293T cells transfected with Flag-DCLK1; IgG as negative control; LC-MS/MS of the co-immunoprecipitate

B1: IKKβ (endogenous in 293T cells) (protein, UniProt O14920 1-756)
chain: MSWSPSLTTQTCGAWEMKERLGTGGFGNVIRWHNQETGEQIAIKQCRQELSPRNRERWCLEIQIMRRLTHPNVVAARDVPEGMQNLAPNDLPLLAMEYCQGGDLRKYLNQFENCCGLREGAILTLLSDIASALRYLHENRIIHRDLKPENIVLQQGEQRLIHKIIDLGYAKELDQGSLCTSFVGTLQYLAPELLEQQKYTVTVDYWSFGTLAFECITGFRPFLPNWQPVQWHSKVRQKSEVDIVVSEDLNGTVKFSSSLPYPNNLNSVLAERLEKWLQLMLMWHPRQRGTDPTYGPNGCFKALDDILNLKLVHILNMVTGTIHTYPVTEDESLQSLKARIQQDTGIPEEDQELLQEAGLALIPDKPATQCISDGKLNEGHTLDMDLVFLFDNSKITYETQISPRPQPESVSCILQEPKRNLAFFQLRKVWGQVWHSIQTLKEDCNRLQQGQRAAMMNLLRNNSCLSKMKNSMASMSQQLKAKLDFFKTSIQIDLEKYSEQTEFGITSDKLLLAWREMEQAVELCGRENEVKLLVERMMALQTDIVDLQRSPMGRKQGGTLDDLEEQARELYRRLREKPRDQRTEGDSQEMVRLLLQAIQSFEKKVRVIYTQLSKTVVCKQKALELLPKVEEVVSLMNEDEKTVVRLQEKRQKELWNLLKIACSKVRGPVSGSPDSMNASRLSQPGQLMSQPSTASNSLPEPAKKSEELVAEAHNLCTLLENAIQDTVREQDQSFTALDWSWLQTEEEEHSCLEQAS
B1 was tested, and the binding was “binds”.
